# Some of the results follow.
# Molecular target: T1, OsSMF1 (Oryza sativa, UniProt Q6ZLB0 1-436)
# T1 sequence: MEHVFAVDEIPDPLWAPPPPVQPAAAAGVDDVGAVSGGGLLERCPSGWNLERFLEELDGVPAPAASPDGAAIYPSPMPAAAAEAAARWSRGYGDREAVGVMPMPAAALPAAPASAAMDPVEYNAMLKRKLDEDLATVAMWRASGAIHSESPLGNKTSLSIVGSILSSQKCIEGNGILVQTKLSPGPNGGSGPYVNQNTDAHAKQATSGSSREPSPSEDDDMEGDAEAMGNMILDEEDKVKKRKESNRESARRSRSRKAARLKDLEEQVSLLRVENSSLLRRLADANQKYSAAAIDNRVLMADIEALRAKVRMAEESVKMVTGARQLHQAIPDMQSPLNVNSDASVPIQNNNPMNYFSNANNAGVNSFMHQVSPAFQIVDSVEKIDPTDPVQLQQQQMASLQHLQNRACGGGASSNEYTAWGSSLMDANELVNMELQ
# Assay: protein-binding microarray (RPBM); PBS, 2% BSA, 51.3 ng/ul salmon testes DNA, 50 uM zinc acetate, 200 nM TF, 25 C, 1 h; high values mean tight binding
# Conditions: protein: recombinant; tags: N-terminal polyhistidine and DsRed monomer fusion (pET32a); chain copies: 2; label: CyDye5-dUTP incorporated in the synthesized complementary strand; 3' TTTTT single-stranded linker to array surface; dsDNA, one strand shown
# In short: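 Polyhistidine-tagged DsRed fusions of transcription factors, joined at the N-terminus, were expressed in E. coli BL21-CodonPlus and isolated on Ni–NTA. They were incubated at 200 nM for 1 h at 25 °C on a custom Agilent array, double-stranded and BSA-blocked, in PBS with 2% BSA, salmon testes DNA and 50 µM zinc acetate. The binding signal is per-feature fluorescence intensity (arbitrary units) read on an Axon 4000B scanner after washing.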
row,Sequence,binding signal
1,TCATGGACCGCGTCACCGATCCAACGCGGCCCACTCGCATCGGAGTCACCTAGTGCAG,4080 fluorescence intensity (a.u.)
2,TTGTGCCTCAAGCCCTAACCTAGCCCAACGTCATTCCCGGCGGAGTCACCTAGTGCAG,3380 fluorescence intensity (a.u.)
3,GTAAAATTAGCAGTTAGAAATCCGGCTTACGTGTAGACTGCGGAGTCACCTAGTGCAG,5880 fluorescence intensity (a.u.)
4,CAAATCTAGATGTACTCATAACATGACACATCAGTGTTAGCGGAGTCACCTAGTGCAG,3240 fluorescence intensity (a.u.)
5,TTATTTATTGTGGCCTACCTCTTGTCACCGCTGCTAGCTCCGGAGTCACCTAGTGCAG,3950 fluorescence intensity (a.u.)
6,GCTACATTTTCGTCGACGTACGTCAGTGACACATGAACTACGGAGTCACCTAGTGCAG,4800 fluorescence intensity (a.u.)
7,GCTAGCCAATCCGCCGCCGCCACCTCACCCAACCAATCCGCGGAGTCACCTAGTGCAG,4840 fluorescence intensity (a.u.)
8,ACAGCACGCATCGCGTTTACACGTAGGTAGCCGTCGGATCCGGAGTCACCTAGTGCAG,8350 fluorescence intensity (a.u.)
9,CTTCGGTGAGGCAGAATTTATATATTGAGCACAAATATAGCGGAGTCACCTAGTGCAG,19300 fluorescence intensity (a.u.)
10,TCCGAAATTGTTGTAATCGATCTGGGTCAGCAGTTCTGCTCGGAGTCACCTAGTGCAG,3760 fluorescence intensity (a.u.)
11,CCGGAGCAGATCCGGATCCTGGAGGCGATCTTCAACTCCGCGGAGTCACCTAGTGCAG,37900 fluorescence intensity (a.u.)
12,AAACCTGAAAACCCTCGCCGCTTCTCCCCGTCCTTCCTTTCGGAGTCACCTAGTGCAG,3320 fluorescence intensity (a.u.)
13,CCGCGGGAGAGAAGGCCCAATCGTGCGCCACGCGTCGTACCGGAGTCACCTAGTGCAG,7860 fluorescence intensity (a.u.)
14,CAGACCAGGGTTACTCTCCTCAACATTCTTAGCTCATAGACGGAGTCACCTAGTGCAG,47700 fluorescence intensity (a.u.)
15,CTAGCCGACGTACCTAGGCGAGGGTGGACGTGATGGAGTTCGGAGTCACCTAGTGCAG,27400 fluorescence intensity (a.u.)
16,TACAGCTGACAGGGTTGTAAAGGCCTGTGGACCAGCCAGTCGGAGTCACCTAGTGCAG,19000 fluorescence intensity (a.u.)
17,CATGGACGAGCATGGCTCATGGCTGACTCGACATTAGAAACGGAGTCACCTAGTGCAG,3850 fluorescence intensity (a.u.)
18,ACAATCATCATTCATTCATGTTACCATGTCACCAGTCTCACGGAGTCACCTAGTGCAG,3800 fluorescence intensity (a.u.)
19,TTTTGTTCGCTACTATAGGCCCACACGTCTGTGCCCATGGCGGAGTCACCTAGTGCAG,3660 fluorescence intensity (a.u.)
20,TGCATGGGCCGGTGTAATGAGCTGGGTAGTAATTGGGCCCCGGAGTCACCTAGTGCAG,3160 fluorescence intensity (a.u.)
21,ACTGCTCACGCCTTAACTGCGCGTCTTAAGGTGGCGTGGCCGGAGTCACCTAGTGCAG,4310 fluorescence intensity (a.u.)

# Reformatted bar-delimited: entries from further up
row | Sequence | binding signal
8 | ACAGCACGCATCGCGTTTACACGTAGGTAGCCGTCGGATCCGGAGTCACCTAGTGCAG | 8350 fluorescence intensity (a.u.)
9 | CTTCGGTGAGGCAGAATTTATATATTGAGCACAAATATAGCGGAGTCACCTAGTGCAG | 19300 fluorescence intensity (a.u.)
10 | TCCGAAATTGTTGTAATCGATCTGGGTCAGCAGTTCTGCTCGGAGTCACCTAGTGCAG | 3760 fluorescence intensity (a.u.)

# (listing goes on)

row,Sequence,binding signal
1,TTGTGCGCCAGCTTGGGGACAAGCTGATACTTTGGCGGGTCGGAGTCACCTAGTGCAG,3440 fluorescence intensity (a.u.)
2,TATCAGTCACTGACAGGTGGGTCCCACCTGCTGACTCAGCCGGAGTCACCTAGTGCAG,16100 fluorescence intensity (a.u.)
3,AAGAAGGGGAGTGGATTGTATAGGGGTGGATGGGGATCGACGGAGTCACCTAGTGCAG,3510 fluorescence intensity (a.u.)
4,GAATAGAAAACGTAAAACCGTAGTGACAAAGCAGCCCGCGCGGAGTCACCTAGTGCAG,4370 fluorescence intensity (a.u.)
5,AAAGCTTGTGTCTACAAATAGGTTACTTGTTCCTGGCCATCGGAGTCACCTAGTGCAG,20200 fluorescence intensity (a.u.)
6,ATTTAACTGCATAGAAGTGTATAAGTAAAATAATTTATTCCGGAGTCACCTAGTGCAG,4320 fluorescence intensity (a.u.)
7,GGGCTTGCCCATTACGCGTTGCTATAGACGCCCTTTCATTCGGAGTCACCTAGTGCAG,41600 fluorescence intensity (a.u.)
8,ACGTGGTGGTGGACGTCTGCTCCCGTCAGCAAGGAGATCCCGGAGTCACCTAGTGCAG,4500 fluorescence intensity (a.u.)
9,TAAACACAGCCTTTGATGTAATGGGAATGTTGAAAGTTCGCGGAGTCACCTAGTGCAG,6410 fluorescence intensity (a.u.)
10,GTAGGAGAGGACACGTGAACTCGTCCCGCGTGGTCGTGTACGGAGTCACCTAGTGCAG,3710 fluorescence intensity (a.u.)
11,TATATTATTATGTGTATATGTGACGTACGTGCAGCCAACTCGGAGTCACCTAGTGCAG,4280 fluorescence intensity (a.u.)
12,CATCAGAACACTGCCAGGTGGGCCACCGTGTCGTGTGGGCCGGAGTCACCTAGTGCAG,3500 fluorescence intensity (a.u.)
13,AAATACCACCCCTCCTGCTCAACCTCTCTCACCCATCATCCGGAGTCACCTAGTGCAG,3160 fluorescence intensity (a.u.)
14,ATTTCATAATATTTAAAATCCAAATTCCACGTAATTTATACGGAGTCACCTAGTGCAG,3430 fluorescence intensity (a.u.)
15,CTTATGCTAAGTTGGGGTCGGGGAGACTGGGGAGCTTCTCCGGAGTCACCTAGTGCAG,4020 fluorescence intensity (a.u.)
16,ACCAAATATGGGCCAGGTCAACGAGCCGAGGTCAACATGTCGGAGTCACCTAGTGCAG,3540 fluorescence intensity (a.u.)
17,GCCCTTTCACAAATATCTGCGTCATCACCGTCGACATCGCCGGAGTCACCTAGTGCAG,6580 fluorescence intensity (a.u.)
18,ACCGCAATGATTCACTTAAACAAGTTCATGGGTCTTAACGCGGAGTCACCTAGTGCAG,3620 fluorescence intensity (a.u.)
19,TGCCATAAAGCGTGTTTGCTGACTAGCTAAAGTATGCAAACGGAGTCACCTAGTGCAG,3540 fluorescence intensity (a.u.)
20,TGCCAACGGCGCCACGCCACCAACCTCCGATCGATCGATCCGGAGTCACCTAGTGCAG,4610 fluorescence intensity (a.u.)
21,GACGACCCTGACAGGTGGGGCCCACCTGTCAGCGGGCGGACGGAGTCACCTAGTGCAG,3640 fluorescence intensity (a.u.)

# Source: publication PMC7819943, “Rice protein-binding microarrays: a tool to detect cis-acting elements near promoter regions in rice”
